The experiment is described as follows: qHTS Assay to Find Inhibitors of Chronic Active B-Cell Receptor Signaling. To be noted: ABC-DLBCL IkBa-CBG/CBR reporter, luminescence ratio (green luciferase fused to IkBa over red control in TMD8 lymphoma cells), 4 h. In short, it runs like this:
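Compounds up to 46 uM were incubated four hours with TMD8 cells whose green CBG68 luciferase is fused to IkappaBalpha; red CBR luminescence normalised the signal, and concentration-effect curves were fitted to fusion, red and ratio data.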

Where [1] appears, read: measured here: CBR red luminescence, cell number.
The mark [2] stands for this setting: measured here: IkBa-CBG green luminescence.

The list shows a part of the results. Further columns of the screen follow, without active or inactive calls. Compounds called inactive in the main read-out are mostly missing here. Words in brackets tell the shape of the fitted curve; partial curves, single points and poor fits give uncertain potencies.

Regarding `O=C(Nc1nc(-c2ccco2)c(-c2ccco2)s1)c1ccco1`, the AC50 – broadly, the concentration giving half of the maximal activity seen – under setting [1] is 32.6 µM [falling, single point].

Take `O=C(Nc1ccccc1)c1sc(N2CCOCC2)nc1-c1ccccc1`: the half-maximal activity concentration (AC50) under setting [1] is 2.06 µM [falling, partial curve, poor fit].

In the case of `COc1ccc(/C=N\Nc2ccc([N+](=O)[O-])cc2[N+](=O)[O-])c(C(=O)O)c1OC`, the half-maximal activity concentration (AC50) under setting [1] was 12.6 µM [rising, single point].

`O=C(Oc1cccc2cccnc12)c1cccs1`: the AC50 is 20.6 µM [rising, single point] under setting [1] and 29.1 µM [falling, single point] under setting [2].

In the case of `O=C1N2CN(C(c3ccccc3)c3ccccc3)CN=C2SC1(CO)CO`, the AC50 under setting [1] is 6.51 µM [falling, partial curve, poor fit].

Take `CCOc1cccc2cc(-c3cn4c(n3)sc3ccccc34)c(=O)oc12`: under setting [1], the AC50 is 0.282 µM [falling, full curve, poor fit].

`CC(C)C[C@H](N)c1nnc(SCC(=O)Nc2ccc(Br)cc2)o1`: the AC50 under setting [1] was 12.6 µM [falling, single point].

For the compound `Cc1csc(NC(=O)c2ccc3c(c2)OCO3)n1`, under setting [1], the AC50 is 15.8 µM [falling, single point].

Regarding `c1ccc(-c2nc3ccccc3nc2-c2ccccn2)nc1`, the AC50 under setting [1] was 29.1 µM [rising, single point].

With `Cc1cccc2nc(CSc3nc4[nH]ncc4c(=O)n3-c3ccccc3Cl)cc(=O)n12`, the AC50 was 3.26 µM [rising, partial curve, poor fit] under setting [1] and 10.3 µM [falling, partial curve] under setting [2].

As for `O=S(=O)(c1ccc2c(c1)OCCO2)N1CCC(c2nc3ccc(Cl)cc3[nH]2)CC1`, the AC50 under setting [1] is 2.91 µM [falling, single point].

Turning to `CC(=O)N/C(=C/c1ccc2c(c1)OCO2)C(=O)O`, under setting [1], the AC50 was 3.55 µM [falling, partial curve].

In the case of `O=C(CSc1nc2ccccc2o1)N1CCN(C(=O)c2ccco2)CC1`, the AC50 under setting [1] is 29.1 µM [rising, single point].

Consider `O=[N+]([O-])c1cncc([N+](=O)[O-])c1Nc1cccc(O)c1`, for which the AC50 under setting [1] was 20 µM [falling, partial curve, poor fit].

For the compound `COC(=O)[C@H](Cc1ccccc1)NC(=O)NCCc1ccc(F)cc1`, the AC50 under setting [1] is 10 µM [rising, partial curve].

With `O=C(CN1CCN(Cc2ccccc2)CC1)Nc1ccc2c(c1)CCC2`, the AC50 under setting [1] was 35.5 µM [rising, single point].

Regarding `Cc1ccn2c(=O)nc(SCC(=O)N3N=C(c4cccs4)CC3c3ccc(F)cc3)nc2c1` (configuration not stated), the AC50 under setting [1] is 23.1 µM [falling, single point].

As to `O=C(Cc1ccccc1)Nc1ccc(CN2CCOCC2)cc1`, the AC50 under setting [1] was 7.31 µM [rising, partial curve, poor fit].

Consider `Cc1cccc(/C(N)=N/OC(=O)CCCc2ccccc2)c1`, for which the AC50 under setting [1] is 3.55 µM [rising, full curve].

Consider `CC1(C)Oc2ccc3ccc(=O)oc3c2/C(=C/NNC(N)=O)C1=O`, for which, under setting [1], the AC50 is 3.55 µM [rising, partial curve, poor fit].

As to `Cc1ccc(C(=O)CSc2nnc(COc3cc(C)cc(C)c3)o2)cc1`, the AC50 under setting [1] is 20.6 µM [rising, single point].

Turning to `O=C(/C=C\c1ccco1)Nc1nc(-c2ccc3ccccc3c2)cs1`, the AC50 under setting [1] was 18.4 µM [falling, single point] and the AC50 under setting [2] is 20.6 µM [rising, partial curve, poor fit].

With `O=C(CCCSc1nc2ccccc2c(=O)[nH]1)c1ccccc1`, the half-maximal activity concentration (AC50) under setting [1] is 2.51 µM [rising, full curve].

As to `CCCCn1c(N)c(N(CCC(C)C)C(=O)CSc2nnc(Nc3ccccc3)s2)c(=O)[nH]c1=O`, the AC50 under setting [1] was 14.1 µM [falling, partial curve, poor fit].

As to `COc1cccc(CN(C)CC(O)COC(c2ccccc2)c2ccccc2C)c1` (configuration not stated), under setting [1], the AC50 is 7.94 µM [falling, partial curve].

For the compound `Cn1c(=O)c2c(ncn2CC(=O)OCC(=O)Nc2sccc2C(N)=O)n(C)c1=O`, the AC50 under setting [1] was 0.164 µM [rising, full curve, poor fit].

In the case of `O=C(CCN1CCN(c2ccccc2)CC1)N/N=C/c1ccccc1O`, under setting [1], the AC50 is 35.5 µM [rising, single point].

Turning to `COc1cc(Nc2c3ccccc3nc3ccccc23)cc(OC)c1OC`, the AC50 under setting [1] is 15.8 µM [falling, partial curve].

For `CCN(CC)C(=O)c1sc2c(c1C)c(=O)n(-c1ccccc1)c(=O)n2Cc1cc(=O)n2ccccc2n1`, the AC50 under setting [1] was 0.355 µM [rising, full curve].

On to `COc1ccc(C2c3[nH]c4ccccc4c3CCN2Cc2cccn2-c2ncccn2)cc1C` (configuration not stated), for which the AC50 under setting [1] is 17.8 µM [falling, single point].

Regarding `O=C(NCc1ccc2c3c(cccc13)C(=O)N2)c1cccs1`, the AC50 under setting [1] is 14.1 µM [falling, partial curve].

As for `COC(=O)c1ccc2nc(Nc3nc4ccc(F)cc4s3)sc2c1`, the AC50 under setting [1] was 0.0326 µM [falling, full curve, poor fit] and the half-maximal activity concentration (AC50) under setting [2] was 0.58 µM [rising, full curve, poor fit].

In the case of `COc1ccc(C2NC(c3ccc(OC)cc3)C([N+](=O)[O-])C(C)(C)C2[N+](=O)[O-])cc1` (configuration not stated), the half-maximal activity concentration (AC50) under setting [1] was 35.5 µM [rising, partial curve, poor fit].

Consider `CC(C)Cn1nc(NC(=O)c2ccco2)c2cc3ccccc3nc21`, for which the AC50 under setting [1] was 0.398 µM [falling, full curve, poor fit].

Consider `CC(C)c1ccc(NC(=O)C(c2ccccc2)N2CC(=O)Nc3ccccc32)cc1` (configuration not stated), for which, under setting [1], the AC50 is 23.1 µM [rising, partial curve].

As for `CN1CCN(S(=O)(=O)c2cc([N+](=O)[O-])ccc2Cl)CC1`, the AC50 under setting [1] is 35.5 µM [rising, single point].

For `CC(NCC(=O)Nc1cc(S(=O)(=O)N2CCOCC2)ccc1Cl)c1ccc(Cl)cc1Cl` (configuration not stated), the AC50 under setting [1] is 18.4 µM [falling, single point].

As to `S=c1[nH]c2cc(-c3ccccc3)ccc2o1`, the AC50 under setting [1] is 5.62 µM [rising, single point].

For `COc1ccccc1NC(=S)N(CCCN(C)C)Cc1cc2cc3c(cc2[nH]c1=O)OCO3`, the AC50 under setting [1] was 11.2 µM [falling, partial curve].

For the compound `COc1cc(CNn2nnnc2N)cc(Br)c1OCC(=O)NC(C)(C)C`, the AC50 under setting [1] is 0.794 µM [rising, full curve, poor fit].

On to `CCCNC(=O)Nc1ccc(C)cc1C`, for which the AC50 under setting [1] is 0.562 µM [rising, full curve, poor fit].

Consider `CC(C)Oc1ccc(C2CC(=O)N(C)C2=O)cc1` (configuration not stated), for which, under setting [1], the AC50 was 17.8 µM [rising, partial curve, poor fit].

Turning to `CCCCOC(=O)CCn1c(=S)oc2ccccc21`, the AC50 under setting [1] is 35.5 µM [rising, single point].

Turning to `CCOC(=O)CCSc1nc(C)c2cc(C)c(C)cc2n1`, under setting [1], the AC50 was 8.2 µM [falling, partial curve, poor fit].

Turning to `O=C(NCCN1CCCCCC1)c1ccc(CS(=O)(=O)c2ccc(Br)cc2)o1`, the AC50 under setting [1] was 5.8 µM [falling, partial curve, poor fit].

As for `O=C(O)c1ccccc1C(=O)NCCc1c(C(=O)O)[nH]c2ccc(Cl)cc12`, the AC50 under setting [1] is 35.5 µM [rising, partial curve, poor fit].

As for `CC(=O)Nc1ccccc1-c1nc2cc(C#N)c(C#N)cc2[nH]c1=O`, the AC50 under setting [1] is 5.01 µM [rising, single point].

As for `COc1ccccc1NS(=O)(=O)c1ccc(O)c(C(=O)OCC(=O)c2ccc(Cl)cc2Cl)c1`, the AC50 under setting [1] was 2.82 µM [falling, partial curve, poor fit].

As for `O=C(COC(=O)c1ccccc1O)Nc1ccc(OC(F)F)cc1`, the AC50 under setting [1] is 2.31 µM [rising, partial curve, poor fit].

As to `COc1ccc(CNC[C@@H](CCCCN(C)Cc2ccc(OC)cc2)N2C[C@H](c3ccccc3)N(CCc3ccc(Cl)c(Cl)c3)C(=O)C2=O)cc1`, the AC50 under setting [1] was 22.4 µM [rising, single point].

In the case of `COc1ccc(C(=O)/C=C/c2ccc(OC)c(CN3CCOCC3)c2)cc1`, the AC50 under setting [1] is 25.9 µM [falling, single point].

`O=S1(=O)Nc2c(ccc3cccnc23)-c2ccccc21`: the AC50 was 1 µM [rising, full curve] under setting [1] and 1.58 µM [falling, full curve] under setting [2].

On to `COc1ccc(-c2[nH]ncc2/C=N\NS(=O)(=O)c2ccccc2)cc1OC`, for which the AC50 under setting [1] is 6.51 µM [rising, single point].

As to `Oc1[nH]c2ccccc2c1N=NC(=S)NCC1CCCO1` (configuration not stated), the AC50 under setting [2] is 29.1 µM [falling, partial curve, poor fit].

On to `CCOC(=O)c1ccc(NC(=O)C2CC2)cc1`, for which the AC50 under setting [1] is 15.8 µM [rising, partial curve, poor fit].

Turning to `CSc1ccccc1NC(=O)COC(=O)c1ccc(O)cc1`, the AC50 under setting [1] is 3.98 µM [falling, full curve].

Take `CCOC(=O)N1CCN(C(=O)c2cccc(S(=O)(=O)Nc3ccc(Br)cc3)c2)CC1`: the concentration at half-maximal activity (AC50) under setting [1] was 5.17 µM [rising, single point].

As to `Cc1cc(OCC(=O)NCCO)ccc1Cl`, the AC50 under setting [1] is 0.116 µM [falling, full curve, poor fit].

Consider `C/C(=N\Nc1ccc([N+](=O)[O-])cc1)c1cccc(N)c1`, for which the AC50 under setting [1] is 1.58 µM [rising, partial curve, poor fit].

For `Cc1ccccc1OCC(O)Cn1c(NCc2ccco2)nc2c1c(=O)n(C)c(=O)n2C` (configuration not stated), the AC50 under setting [1] is 28.2 µM [falling, single point].

Turning to `Cc1ccc(CSc2ccc(-c3ccco3)nn2)cc1`, the AC50 under setting [1] was 2.91 µM [rising, full curve, poor fit].

`Cc1nc(NC(=O)C(C)Oc2cccc(Cl)c2)sc1C(=O)N(C)C` (configuration not stated): the AC50 under setting [1] was 23.1 µM [rising, partial curve, poor fit].

These data come from PubChem BioAssay AID493014 (National Center for Advancing Translational Sciences (NCATS), 2011).
